Results on two sequences are retold here after patent US5821070.

Series [1] has as its system E2F (partially purified, HeLa) (Homo sapiens). The experiment in a line: competition with a labelled probe. As to conditions: mutated site stated not to bind E2F; purified native protein; variant of two E2F sites, wild type.
The test system is the same in series [2]. The experiment in a line: EMSA. As to conditions: positive control; purified native protein; label: 32P (Klenow fill-in). In general terms: Mobility shift assays separate free from complexed probe on a gel.
Series [3] relates to GST-Ap9 (G protein beta-like). The experiment in a line: EMSA. As to conditions: 200 ng; protein in a lysate after overexpression; protein details: GST; label: 32P (Klenow fill-in).
The test system of the next series is GST-Ap15. Briefly: EMSA. As to conditions: 200 ng; protein in a lysate after overexpression; protein details: GST; label: 32P (Klenow fill-in).

For at least one entry, the source does not settle the construct or the ends of the probe. For some of these results: Negatives hold for the conditions tested. For some of these results: At least one result comes from cells or an extract, where the contact may be indirect.

In the case of “TTTAGCGCGCGCTAAA (double strand) [mutated E2F sites]”, in series [1], the binding result is given as “no binding”.

On to “TTTCGCGCGCGCGAAA (double strand) [two E2F sites, wild type]”, for which the binding result in series [2] was “binds”; in series [3] it was “no binding”; in the series with GST-Ap15, “no binding”.
